Literature values in patent US9327015B2, “Methods and devices for correcting spinal deformity with pharmaceutical-eluting pedicle screws” (DePuy Synthes Products, Inc., priority 2009, dated 2016).
For at least one compound, name, drawing or mass did not settle the structure.

Assays:
[1] = system: bone growth and maturation
[2] = adult female rhesus monkeys, 50 mg/kg/day, one year

CN(C)[C@@H]1C(O)=C(C(N)=O)C(=O)[C@@]2(O)C(O)=C3C(=O)c4c(O)cccc4[C@@](C)(O)[C@H]3C[C@@H]12 [tetracycline]
inhibition of bone growth (fibular growth rate; chronic oral administration to young patients): significant inhibition of bone growth | inhibition of the fibular growth rate (fibular growth rate; premature babies, about 100 mg/kg/day for about 9-12 days): 40% | Ca/Pi ratios in the temporally young newly formed bone mineral [1, 2]: abnormally high | concentration of bone minerals such as calcium, inorganic phosphorous and hydroxyproline [1, 2]: normal | percentage of highly mineralized osteons labeled with tetracycline [1, 2]: subnormal | effect on bone growth and maturation ([1]; protracted, high dose treatment, adult primates): impairs bone growth and maturation
